## Percent effect of library compounds

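Whole-cell growth test on Mycobacterium tuberculosis, read after 4 days in a medium based on cholesterol and the lipid DPPC; the read-out is not stated. Compounds at 500 µM. Higher reads as more growth inhibition (inferred: compounds with an IC50 in retests scored well above the rest). About 18,000 compounds were tested under these conditions; 5% (about 900) showed 50% or more at least once.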

Values are the deposited “Percent Effect”, in %. The record does not define 0% and 100%; most values in the screen are far below 50% and negative numbers occur (in some assays of this library far below -100). Compounds were drawn at random from those tested, without regard to their results.

| structure | percent effect |
|---|---|
| `C1CN[C@H]2COC[C@H]2C1` | 1.777 |
| `CCC(O)CN1CCN(CC2CCOCC2)CC1` (stereo unspecified) | 3.082 |
| `Cc1cccc(NC(=O)NC2CCN(C)CC2)c1` | -2.585 |
| `CCOC(=O)CNC(=O)c1ccc2c(c1)OCCO2` | 61.92 |
| `CCN1CCN(C(=O)C2COc3ccccc3C2)CC1` (stereo unspecified) | -2.574 |
| `O=C(NCC(=O)N1CCCC1)c1csc2ccccc12` | 27.48 |
| `Cc1cccc(Cl)c1OCCN` | 29.28 |
| `OCCNCCNCc1ccc(-c2ccccc2)o1` | 57.73 |
| `COc1cc(OC)cc(C2(F)CCNCC2)c1` | 33.6 |
| `OC1(C(F)(F)F)CCOCC1` | 6.694 |
| `Cc1c(C(=O)NC2=NCCS2)oc2ccccc12` | 88.43 |
| `CNCC(=O)Nc1cc(F)c(OC)cc1OC` | 3.113 |
| `CCN1CC(NC(=O)CCc2cccnc2)CC1=O` (stereo unspecified) | -4.04 |
| `CCCNCC(=O)Nc1ccccc1OC` | 0.2767 |
| `CCC(NCCn1cc(C)cn1)C(N)=O` (stereo unspecified) | -16.4 |
| `N#Cc1cnc2c(c1)OCCO2` | -17.58 |
| `O=C(NC1COc2ccccc21)c1ccc(=O)[nH]c1` (stereo unspecified) | -6.684 |
| `Cc1cccc(C(=O)Nc2cccc(O)c2)n1` | 42.8 |
| `Cc1occc1S(=O)(=O)Cc1nc(C2CC2)n[nH]1` | -1.792 |
| `NC1CSCc2c(F)cccc21` (stereo unspecified) | -31.84 |
| `CCN(CC)S(=O)(=O)N1CCN(CC(N)=O)CC1` | 6.745 |
| `COc1ccc(F)cc1C(=O)N1CCC(CN)CC1` | 19.84 |
| `COc1ccc(OCC(=O)NCCN2CCCC2)cc1` | 1.99 |
| `Cc1nccn1CCCN1CCC2(CCO2)CC1` | -2.122 |
| `COc1cc(O)c(C(C)=O)cc1OC` | -24.64 |
| `O=C(NCC1CC1)c1noc(-c2ccccc2F)n1` | 50.63 |
| `C=C(C)CN(CC)C(=O)CN1CCN(C(C)=O)CC1` | -11.39 |
| `CNC(=O)CCCN(C)Cc1c(F)cccc1F` | -0.2274 |
| `OCC1(NCc2ccc(F)c(Cl)c2)CCOCC1` | 8.776 |
| `CCn1nc(C)c(CO)c1C` | 1.28 |
| `CN(Cc1nnc[nH]1)C(=O)Cc1cccc(Br)c1` | -11.86 |
| `CC(=O)c1sc(NCCc2ccccn2)nc1C` | 41.67 |
| `CCCn1ccnc1-c1nc2c([nH]1)CCCNC2=O` | -10.5 |
| `NC(=O)C1CCCN(C(=O)COCc2ccccc2)C1` (stereo unspecified) | -0.4046 |
| `CC(C)(C)C(=O)N1CCN2C(=O)NCC2C1` (stereo unspecified) | 5.921 |
| `COC(=O)CC(NC(=O)c1cc(C)n[nH]1)C1CC1` (stereo unspecified) | 6.842 |
| `NC1CCN(c2ncccc2Cl)C1` (stereo unspecified) | 77.63 |
| `CCC(C(=O)N(C)Cc1ncnn1C)c1ccccc1` (stereo unspecified) | 10.88 |
| `Cc1nc(CCN)cc(NC2CCC2)n1` | 39.95 |
| `COc1ccc(NC(=O)NC(C)Cn2ccnc2)cn1` (stereo unspecified) | -80.67 |
| `COCCN1CC(C(=O)NCCC(C)C)CC1=O` (stereo unspecified) | -11.92 |
| `COc1ccccc1C(N)c1ccco1` (stereo unspecified) | 7.739 |
| `OCc1ccc2c(c1)OCCO2` | 17.53 |
| `c1cncc(-c2nc(SCC3CCCCO3)n[nH]2)c1` (stereo unspecified) | 64.46 |
| `O=C(CCOc1cccc(F)c1)NCC1CCCO1` (stereo unspecified) | 28.97 |
| `CN(C)Cc1ccc(C(=O)NCCCc2ccco2)o1` | 29.06 |
| `O=C(CC1CCCC1)NCCc1noc(CO)n1` | -17.25 |
| `O=C1CSC2(CCS(=O)(=O)C2)N1c1ccccc1` (stereo unspecified) | -12.63 |

Once more, the final 3:

- CN(C)Cc1ccc(C(=O)NCCCc2ccco2)o1 | 29.06%
- O=C(CC1CCCC1)NCCc1noc(CO)n1 | -17.25%
- O=C1CSC2(CCS(=O)(=O)C2)N1c1ccccc1 (stereo unspecified) | -12.63%

The values are deposited in ChEMBL (CHEMBL3988442, “University of Dundee, Small-Polar-MMV Screening Library” (2021)).